Structures can show the parent of a compound that is named as a salt. Single values of this set are uncertain. Peptide text beside a SMILES is read from it. * marks the point of attachment. Cbz = O=C(OCc1ccccc1)*; CH2F = FC*
Each molecule was assayed on Danio rerio embryo (assay: lowest lethal concentration (of 2, 10, 50 µM tested), 10-36 hpf treatment; higher = less toxic). Settings: treatment window: 10-36 hpf.
With `Cc1nnsc1C(=O)Nc1ccc(-n2nc(C(F)(F)F)cc2C(F)(F)F)cc1` [Btp2] the lowest lethal concentration was over 50 µM.
In the case of `O=c1cc(N2CCOCC2)oc2c1ccc1ccccc12` [NU7026], the lowest lethal concentration is reported as over 50 µM.
With `NC(=O)c1ncn([C@@H]2O[C@H](CO)[C@@H](O)[C@H]2O)c1N` [Acadesine] the lowest lethal concentration was over 50 µM.
In the case of `NS(=O)(=O)c1ccc(NC(=O)C(C(F)(F)F)C(F)(F)F)cc1` [Hdm2 E3 Ligase Inhibitor], the lowest lethal concentration is reported as over 50 µM.
`COc1cc2ncc(-c3ccccc3)nc2cc1OC` [AG 1296] was tested, and the lowest lethal concentration was over 50 µM.
Work on `O=C(Nc1ccc(Cl)cc1)c1ccccc1NCc1ccncc1` [VEGF Receptor Tyrosine Kinase Inhibitor II] yielded a lowest lethal concentration of over 50 µM.
With `FC(F)(F)c1cccc(-c2noc(-c3cc(-c4ccccc4)c(C(F)(F)F)s3)n2)c1` [SEW2871] the lowest lethal concentration was over 50 µM.
In the case of `COc1cccc2c1cc([N+](=O)[O-])c1c(C(=O)O)cc3c(c12)OCO3` [Aristolochic Acid], the lowest lethal concentration is reported as over 50 µM.
With `CC(=O)O/N=C1/C(c2c(O)[nH]c3cc(Br)ccc23)=Nc2ccccc21` [GSK-3 Inhibitor X] the lowest lethal concentration was over 50 µM.
`C=C1O[C@@](CO)(n2cnc3c(N)ncnc32)[C@H](O)[C@@H]1O` [Decoyinine] gave a lowest lethal concentration of over 50 µM.
In the case of `CCc1sc(N)nc1-c1ccc(OC)cc1`, the lowest lethal concentration is reported as over 50 µM.
For `Oc1ccccc1-c1ccc2cccnc2n1` [2-(1,8-Naphthyridin-2-yl)phenol], the lowest lethal concentration was over 50 µM.
`O[C@H]1[C@H](O)[C@@H](O)CN2CC[C@H](O)[C@H]12` [Castanospermine] gave a lowest lethal concentration of over 50 µM.
Work on `CN(C(Cc1ccc(OS(=O)(=O)c2cccc3cnccc23)cc1)C(=O)N1CCN(c2ccccc2)CC1)S(=O)(=O)c1cccc2cnccc12` (stereo unspecified) [KN-62] yielded a lowest lethal concentration of over 50 µM.
`Nc1ncnc2c1nc(Br)n2[C@@H]1O[C@@H]2COP(=O)(O)O[C@H]2[C@H]1O` [8-bromo-cAMP] gave a lowest lethal concentration of over 50 µM.
`CC(C)c1nn(-c2c(Cl)cccc2Cl)c2nc(Cc3ccc(OCCO)cc3)[nH]c(=O)c12` [Cdk/Crk Inhibitor] showed a lowest lethal concentration of 10 µM.
`CCc1oc2cc(S(=O)(=O)Nc3ccc(S(=O)(=O)Nc4nccs4)cc3)ccc2c1C(=O)c1cc(Br)c(O)c(Br)c1` [PTP1B Inhibitor] showed a lowest lethal concentration of 50 µM.
In the case of `Cc1ccc(NCCCc2ccccc2)c(N)c1` [JSH-23], the lowest lethal concentration is reported as over 50 µM.
Molecule `O=C(c1cc2cc(O)ccc2[nH]1)c1cc2cc(O)ccc2[nH]1` [Flt-3 Inhibitor II] has a lowest lethal concentration of over 50 µM.
Work on `Cc1ccccc1N=Nc1ccc(NC(=O)c2ccnn2C)c(C)c1` yielded a lowest lethal concentration of over 50 µM.
Work on `c1ccc(-c2n[nH]c3c2oc2ccccc23)cc1` yielded a lowest lethal concentration of over 50 µM.
For `Nc1c(S(=O)(=O)O)cc(S(=O)(=O)O)c2cccc(O)c12` [CaMKP Inhibitor], the lowest lethal concentration was over 50 µM.
`Nc1ncnc2c1ncn2C1CCCO1` (stereo unspecified) showed a lowest lethal concentration of over 50 µM.
With `COc1cc(OC)cc(-c2cc3cnc(N)nc3nc2NC(=O)NC(C)(C)C)c1` the lowest lethal concentration was over 50 µM.
`C/C1=C/C(=O)O[C@@H]2C[C@@H](CC[C@H](C)/C=C\CC1)O[C@@](O)([C@@H]1CSC(=O)N1)C2` [Latrunculin B] was tested, and the lowest lethal concentration was over 50 µM.
In the case of `N#C/C(=C/c1ccc(O)c(O)c1)C(=O)OC/C=C/c1ccccc1` [CDC], the lowest lethal concentration is reported as 50 µM.
`O=C(c1ccc(Nc2nccc(-c3cc4ccccc4s3)n2)cc1)N1CCC(N2CCCC2)CC1` [IKK Inhibitor VII] was tested, and the lowest lethal concentration was over 50 µM.
`C/C(O)=C(\C#N)C(=O)Nc1cc(Br)ccc1Br` [LFM-A13] was tested, and the lowest lethal concentration was over 50 µM.
Molecule `OCc1ccc(-c2nn(Cc3ccccc3)c3ccccc23)o1` [YC-1] has a lowest lethal concentration of over 50 µM.
For `Cc1ccc(S(=O)(=O)/C=C/C#N)cc1` [Bay 11-7082], the lowest lethal concentration was 10 µM.
`O=C(Nc1ccc([N+](=O)[O-])cc1O)Nc1ccccc1Br` was tested, and the lowest lethal concentration was 50 µM.
Molecule `CC(C)CC[C@@H](O)[C@](C)(O)[C@H]1CC[C@@]2(O)C3=CC(=O)[C@]4(O)C[C@@H](O)[C@@H](O)C[C@]4(C)[C@H]3[C@H](O)C[C@]12C` [Muristerone A] has a lowest lethal concentration of over 50 µM.
`CCCC[C@@H](C)/C=C(C)/C=C(\C)C(=O)NC1=C[C@@](O)(/C=C/C=C/C=C/C(=O)NC2=C(O)CCC2=O)[C@@H]2O[C@@H]2C1=O` [Manumycin A] was tested, and the lowest lethal concentration was 50 µM.
`O=C1NC(=O)/C(=C\c2cccc(C(F)(F)F)c2)S1` [TCS-PIM-1-4a] was tested, and the lowest lethal concentration was 50 µM.
`COc1cc2ncnc(Nc3ccc(Oc4ccccc4)cc3)c2cc1OC` [Src Kinase Inhibitor I] gave a lowest lethal concentration of over 50 µM.
In the case of `CCNC(=O)[C@H]1O[C@@H](n2cnc3c(N)ncnc32)[C@H](O)[C@@H]1O` [NECA], the lowest lethal concentration is reported as over 50 µM.
`O=C1c2ccccc2-c2n[nH]c3cccc1c23` was tested, and the lowest lethal concentration was 50 µM.
Work on `C/C=C1\C(=O)C[C@H]2[C@@H]3CCC4=CC(=O)CC[C@]4(C)[C@H]3CC[C@]12C` [Z-Guggulsterone] yielded a lowest lethal concentration of over 50 µM.
Work on `O=C(Nc1nc2ccccc2n1CCN1CCOCC1)c1cccc([N+](=O)[O-])c1` [IRAK-1/4 Inhibitor] yielded a lowest lethal concentration of over 50 µM.
Work on `O=C(Nc1cccc(C(F)(F)F)c1)Nc1cc(Cl)ccc1C(=O)O` [NS3694] yielded a lowest lethal concentration of 50 µM.
`O=Cc1c2[nH]c3ccccc3c2cc2[nH]c3ccccc3c12` [FICZ] showed a lowest lethal concentration of over 50 µM.
With `c1ccc2c(-c3ccncc3)c[nH]c2c1` [Rockout] the lowest lethal concentration was over 50 µM.
Work on `N#Cc1cnc2cnc(NCc3cccnc3)cc2c1NC1CCCCCC1` [Tpl2 Kinase Inhibitor II] yielded a lowest lethal concentration of over 50 µM.
Molecule `Cn1cnc2cc3c(Nc4cccc(Br)c4)ncnc3cc21` [BPIQ-I] has a lowest lethal concentration of 10 µM.
`O=c1cc(-c2ccccc2)oc2cc(O)ccc12.O=c1cc(-c2ccccc2)oc2cc(O)ccc12.[Cl-].[Cl-].[Mn+2]` [Mn-cpx 3] gave a lowest lethal concentration of over 50 µM.
Molecule `CNC(=O)[C@@H](NC(=O)[C@H](CC(C)C)[C@H](O)C(=O)NO)C(C)(C)C` [Marimastat] has a lowest lethal concentration of over 50 µM.
In the case of `O=C(O)c1ccc2c3c1cccc3c(=O)n1c3ccccc3nc21` [STO 609], the lowest lethal concentration is reported as over 50 µM.
Work on `COC(=O)C[C@H](NC(=O)[C@H](C)NC(=O)[C@@H](NC(=O)OCc1ccccc1)C(C)C)C(=O)CF` [Z-VAD-FMK] (Cbz-Val-Ala-Asp(OMe)-CH2F) yielded a lowest lethal concentration of over 50 µM.
For `Cc1cccc(-c2[nH]c(C(C)(C)C)nc2-c2ccc3c(c2)OCO3)n1` [TGF-b RI Inhibitor III], the lowest lethal concentration was over 50 µM.
`O=C(O)CN1C(=O)c2cccc3cccc(c23)C1=O` [Alrestatin] showed a lowest lethal concentration of over 50 µM.
With `CC(=O)c1ccc2c(c1)[C@@H]1C=CC[C@@H]1[C@H](c1cc3c(cc1Br)OCO3)N2` [G-1] the lowest lethal concentration was over 50 µM.
In the case of `CNC(=O)[C@H]1O[C@@H](n2cnc3c(NCc4cccc(I)c4)ncnc32)[C@H](O)[C@@H]1O` [IB-MECA], the lowest lethal concentration is reported as over 50 µM.
Work on `CCC(C)C(COC(Cc1ccccc1)C(=O)NC(CCS(C)(=O)=O)C(=O)OC(C)C)NCC(N)CS` [L-744,832] yielded a lowest lethal concentration of over 50 µM.
Work on `c1cc(CN2CCCNCCNCCCNCC2)ccc1CN1CCCNCCNCCCNCC1` [Bicyclam] yielded a lowest lethal concentration of over 50 µM.
`CCCCc1oc2ccccc2c1C(=O)c1cc(I)c(OCCN(CC)CC)c(I)c1` [Amiodarone] gave a lowest lethal concentration of over 50 µM.
With `O=S(=O)(NCCNC/C=C/c1ccc(Br)cc1)c1cccc2cnccc12` [H-89] the lowest lethal concentration was over 50 µM.
`NC(=NN=Cc1ccc(-c2cccc([N+](=O)[O-])c2)o1)N[N+](=O)[O-]` [ERK Inhibitor III] showed a lowest lethal concentration of over 50 µM.
For `c1ccc(-c2[nH]ncc2-c2ccnc3ccccc23)nc1`, the lowest lethal concentration was over 50 µM.
In the case of `CCC(C)(C)C(=O)O[C@H]1C[C@@H](C)C=C2C=C[C@H](C)[C@H](CC[C@@H](O)C[C@@H](O)CC(=O)O)[C@H]21` [Simvastatin sodiumÂ], the lowest lethal concentration is reported as over 50 µM.
`CCCCn1c2ccc(O)cc2c2c3c(c(-c4ccccc4Cl)cc21)C(=O)NC3=O` [Wee1 Inhibitor II] was tested, and the lowest lethal concentration was over 50 µM.
Molecule `CCc1ccc(/C=C2/SC(=S)NC2=O)cc1` has a lowest lethal concentration of 50 µM.
Molecule `O=C1C(SCCO)=C(SCCO)C(=O)c2ccccc21` has a lowest lethal concentration of 50 µM.
`Oc1ccc(Nc2nc(-c3ccc(Cl)cc3)cs2)cc1` [Sphingosine Kinase Inhibitor] showed a lowest lethal concentration of over 50 µM.
`FC(F)(F)c1nnc2c(Sc3ccccc3)nc3ccc(Cl)cc3n12` [R 7050] showed a lowest lethal concentration of over 50 µM.
For `CCCC[C@@H](C=O)NC(=O)[C@H](CC(C)C)NC(=O)OCc1ccccc1` [Calpeptin], the lowest lethal concentration was over 50 µM.
Molecule `CN(C)CCCn1cc(C2=C(c3c[nH]c4ccccc34)C(=O)NC2=O)c2ccccc21` [Bisindolylmaleimide I] has a lowest lethal concentration of over 50 µM.
`O=c1c(N=Nc2ccc(S(=O)(=O)O)cc2)c(-c2ccc([N+](=O)[O-])cc2)[nH]n1-c1ccccc1` [PHPS1] gave a lowest lethal concentration of over 50 µM.
In the case of `c1cc(-c2sc(-c3ccncc3)c(-c3ccncc3)c2-c2ccncc2)ccn1` [GANT58], the lowest lethal concentration is reported as over 50 µM.
With `O=C(O)/C=C/c1cc(Br)c(Br)c(Br)c1Br` [TBCA] the lowest lethal concentration was over 50 µM.
`O=c1c(-c2ccc(F)cc2)c(-c2ccncc2)[nH]n1-c1ccc(Cl)cc1` [p38 MAP Kinase Inhibitor] showed a lowest lethal concentration of over 50 µM.
`O=c1[nH]c(=S)[nH]c(-c2ccccc2)c1Cc1c(O)ccc2ccccc12` [Cambinol] showed a lowest lethal concentration of over 50 µM.
In the case of `COc1cc2ncnc(N3CCN(C(=O)Nc4ccc(Oc5ccccc5)cc4)CC3)c2cc1OC` [PDGFR Tyrosine Kinase Inhibitor III], the lowest lethal concentration is reported as over 50 µM.
`CCOc1nc(NC(=O)Cc2cc(OC)ccc2OC)cc(N)c1C#N` [JNK Inhibitor VIII] was tested, and the lowest lethal concentration was over 50 µM.
`N#Cc1cc([N+](=O)[O-])c2sc(C(N)=O)[n+]([O-])c2c1` [BTO-1] gave a lowest lethal concentration of over 50 µM.
For `CN(C)C(=N)NC(=N)N` [Metformin hydrochloride], the lowest lethal concentration was over 50 µM.
Molecule `C[C@H](NC(=O)Cc1cc(F)cc(F)c1)C(=O)N[C@H]1N=C(c2ccccc2)c2ccccc2N(C)C1=O` [Compound E] has a lowest lethal concentration of over 50 µM.
Work on `COc1cc(C(C)=O)ccc1O` [Acetovanillone] yielded a lowest lethal concentration of over 50 µM.
`CC/C(=C(\c1ccccc1)c1ccc(OCCN(C)C)cc1)c1ccccc1` [Tamoxifen] showed a lowest lethal concentration of over 50 µM.
Work on `Ic1cccc(CSc2nnc(-c3ccncc3)o2)c1` [GSK-3 Inhibitor II] yielded a lowest lethal concentration of over 50 µM.
In the case of `CCCCC[C@H](O)CC(=O)CCc1ccc(O)c(OC)c1` [Gingerol], the lowest lethal concentration is reported as over 50 µM.
For `CC(C)(C)c1cc(C=C(C#N)C(N)=S)cc(C(C)(C)C)c1O` [AG 879], the lowest lethal concentration was 10 µM.

Reference: the supplement of paper PMC5711842
